The other results are listed elsewhere or left out. The data scatter; read single values as rough.
Assays:
[1] = compound: ClCC(=O)N[C@@H]1CCCc2ccccc12; assay: log2 mean competition ratio of IA-DTB cysteine labelling (DMSO/compound) (log2 ratio); higher = stronger cysteine engagement by compound; conditions: treatment time: 4 h, cell line lysate: HEK293T
Description: (§1)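 IA-DTB competitive cysteine chemoproteomics in HEK293T RIPA lysate. Lysates were treated with compound 29 or 30 at 50 or 200 µM for 4 h, then IA-DTB (500 µM, 1 h), trypsin-digested, NeutrAvidin-enriched and analysed by diaPASEF. Competition ratio = intensity DMSO / intensity compound (n=4 treated, n=64 DMSO); binding: mean log2 CR ≥ 1 and p ≤ 0.05 plus QC filters. Target is the cysteine site.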

Protein sequences, listed by entry. Tags and fused reporters are not part of them. Lines headed by an entry give the natural chain unless they say otherwise; changes in a name come on top.
UniProt Q7Z3E2: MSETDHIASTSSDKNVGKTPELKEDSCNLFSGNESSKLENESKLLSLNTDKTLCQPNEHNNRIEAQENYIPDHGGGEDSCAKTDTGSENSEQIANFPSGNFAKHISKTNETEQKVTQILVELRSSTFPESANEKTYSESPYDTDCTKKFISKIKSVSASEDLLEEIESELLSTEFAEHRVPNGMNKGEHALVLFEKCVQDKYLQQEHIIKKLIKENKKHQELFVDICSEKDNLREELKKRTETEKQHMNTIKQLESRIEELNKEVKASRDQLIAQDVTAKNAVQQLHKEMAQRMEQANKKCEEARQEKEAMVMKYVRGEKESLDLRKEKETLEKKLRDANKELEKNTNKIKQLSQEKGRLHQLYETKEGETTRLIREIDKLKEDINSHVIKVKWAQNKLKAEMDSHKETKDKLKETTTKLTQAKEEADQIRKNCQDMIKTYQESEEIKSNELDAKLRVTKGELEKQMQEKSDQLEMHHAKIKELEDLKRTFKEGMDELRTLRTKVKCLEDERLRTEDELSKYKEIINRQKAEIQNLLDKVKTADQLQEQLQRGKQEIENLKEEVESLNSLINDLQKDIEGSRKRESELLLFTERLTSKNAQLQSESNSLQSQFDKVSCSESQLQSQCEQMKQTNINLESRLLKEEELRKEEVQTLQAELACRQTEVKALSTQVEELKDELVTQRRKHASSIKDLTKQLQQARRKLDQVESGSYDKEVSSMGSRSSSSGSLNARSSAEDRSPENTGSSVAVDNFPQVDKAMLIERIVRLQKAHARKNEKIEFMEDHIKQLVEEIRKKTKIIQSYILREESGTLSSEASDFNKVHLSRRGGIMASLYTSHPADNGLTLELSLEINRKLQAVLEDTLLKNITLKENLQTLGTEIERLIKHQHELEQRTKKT
UniProt Q02224: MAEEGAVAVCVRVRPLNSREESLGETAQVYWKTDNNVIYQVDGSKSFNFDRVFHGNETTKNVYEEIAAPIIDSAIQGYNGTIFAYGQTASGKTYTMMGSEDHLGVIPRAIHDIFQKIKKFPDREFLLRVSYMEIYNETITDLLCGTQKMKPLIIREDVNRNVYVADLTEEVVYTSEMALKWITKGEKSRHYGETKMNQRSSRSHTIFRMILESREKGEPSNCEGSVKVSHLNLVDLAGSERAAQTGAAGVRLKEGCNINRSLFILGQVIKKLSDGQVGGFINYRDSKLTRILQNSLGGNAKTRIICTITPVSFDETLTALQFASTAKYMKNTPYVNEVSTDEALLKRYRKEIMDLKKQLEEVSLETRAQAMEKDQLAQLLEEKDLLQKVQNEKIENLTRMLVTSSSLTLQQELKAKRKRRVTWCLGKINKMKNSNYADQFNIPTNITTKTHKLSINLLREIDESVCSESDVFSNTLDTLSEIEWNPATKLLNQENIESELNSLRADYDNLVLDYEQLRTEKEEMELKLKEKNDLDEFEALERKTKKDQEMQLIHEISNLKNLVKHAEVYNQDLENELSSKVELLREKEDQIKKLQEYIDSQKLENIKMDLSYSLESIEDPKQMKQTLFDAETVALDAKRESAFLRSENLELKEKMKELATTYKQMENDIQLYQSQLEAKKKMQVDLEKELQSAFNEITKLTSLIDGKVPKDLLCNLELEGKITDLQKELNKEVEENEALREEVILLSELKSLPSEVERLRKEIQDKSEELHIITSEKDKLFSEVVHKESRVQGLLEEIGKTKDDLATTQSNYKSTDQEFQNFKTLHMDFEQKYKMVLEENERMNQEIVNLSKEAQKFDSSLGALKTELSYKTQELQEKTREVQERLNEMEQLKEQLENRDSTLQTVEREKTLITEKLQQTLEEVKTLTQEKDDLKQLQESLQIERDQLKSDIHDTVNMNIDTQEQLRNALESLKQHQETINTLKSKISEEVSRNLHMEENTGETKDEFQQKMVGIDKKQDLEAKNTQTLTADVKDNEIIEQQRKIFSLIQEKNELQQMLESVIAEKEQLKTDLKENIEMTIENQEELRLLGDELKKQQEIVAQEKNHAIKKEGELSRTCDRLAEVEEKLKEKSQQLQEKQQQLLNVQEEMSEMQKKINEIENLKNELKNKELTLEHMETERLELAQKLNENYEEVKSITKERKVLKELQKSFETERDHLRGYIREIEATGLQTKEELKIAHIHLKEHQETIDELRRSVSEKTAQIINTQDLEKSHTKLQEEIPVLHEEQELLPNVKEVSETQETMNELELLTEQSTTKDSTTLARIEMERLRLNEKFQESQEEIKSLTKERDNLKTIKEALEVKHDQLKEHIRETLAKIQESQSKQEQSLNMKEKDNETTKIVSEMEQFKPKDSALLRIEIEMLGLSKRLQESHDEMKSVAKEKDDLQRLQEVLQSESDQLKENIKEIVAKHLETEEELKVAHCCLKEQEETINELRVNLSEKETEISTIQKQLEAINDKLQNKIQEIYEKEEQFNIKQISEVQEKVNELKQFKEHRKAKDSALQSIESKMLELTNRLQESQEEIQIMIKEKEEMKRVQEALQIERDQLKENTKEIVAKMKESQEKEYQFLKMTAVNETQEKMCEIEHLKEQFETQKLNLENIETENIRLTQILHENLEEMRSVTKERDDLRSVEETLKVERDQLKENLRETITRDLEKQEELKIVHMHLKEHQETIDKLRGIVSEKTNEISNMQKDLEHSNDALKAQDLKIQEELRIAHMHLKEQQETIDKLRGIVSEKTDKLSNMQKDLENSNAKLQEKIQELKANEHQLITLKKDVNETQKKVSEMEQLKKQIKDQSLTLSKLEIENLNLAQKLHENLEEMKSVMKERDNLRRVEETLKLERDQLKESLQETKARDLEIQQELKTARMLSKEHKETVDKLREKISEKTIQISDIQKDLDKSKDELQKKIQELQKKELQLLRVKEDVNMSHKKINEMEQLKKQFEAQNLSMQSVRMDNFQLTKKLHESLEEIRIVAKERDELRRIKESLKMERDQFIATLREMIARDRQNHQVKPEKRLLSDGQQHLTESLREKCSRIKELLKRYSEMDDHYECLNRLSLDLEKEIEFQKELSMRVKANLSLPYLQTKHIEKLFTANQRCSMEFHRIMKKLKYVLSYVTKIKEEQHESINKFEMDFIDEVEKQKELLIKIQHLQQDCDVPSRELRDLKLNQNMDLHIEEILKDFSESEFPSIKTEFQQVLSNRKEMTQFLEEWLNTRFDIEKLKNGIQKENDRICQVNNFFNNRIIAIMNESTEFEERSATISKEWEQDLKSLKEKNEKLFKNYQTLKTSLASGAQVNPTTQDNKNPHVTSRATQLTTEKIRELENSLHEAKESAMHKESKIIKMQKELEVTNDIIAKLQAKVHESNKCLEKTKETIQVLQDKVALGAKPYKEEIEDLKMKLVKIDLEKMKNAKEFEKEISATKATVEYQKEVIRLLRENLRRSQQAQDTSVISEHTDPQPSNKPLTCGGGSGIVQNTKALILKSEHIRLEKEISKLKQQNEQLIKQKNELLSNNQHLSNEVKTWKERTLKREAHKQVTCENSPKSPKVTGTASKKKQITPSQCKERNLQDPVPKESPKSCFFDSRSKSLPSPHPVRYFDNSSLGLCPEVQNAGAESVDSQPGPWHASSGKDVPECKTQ
UniProt Q9NSP4: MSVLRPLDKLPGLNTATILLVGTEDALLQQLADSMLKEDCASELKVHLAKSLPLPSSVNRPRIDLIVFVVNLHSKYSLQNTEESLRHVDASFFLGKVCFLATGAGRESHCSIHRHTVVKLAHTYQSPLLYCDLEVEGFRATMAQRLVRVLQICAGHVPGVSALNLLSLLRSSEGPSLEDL
UniProt Q53EZ4: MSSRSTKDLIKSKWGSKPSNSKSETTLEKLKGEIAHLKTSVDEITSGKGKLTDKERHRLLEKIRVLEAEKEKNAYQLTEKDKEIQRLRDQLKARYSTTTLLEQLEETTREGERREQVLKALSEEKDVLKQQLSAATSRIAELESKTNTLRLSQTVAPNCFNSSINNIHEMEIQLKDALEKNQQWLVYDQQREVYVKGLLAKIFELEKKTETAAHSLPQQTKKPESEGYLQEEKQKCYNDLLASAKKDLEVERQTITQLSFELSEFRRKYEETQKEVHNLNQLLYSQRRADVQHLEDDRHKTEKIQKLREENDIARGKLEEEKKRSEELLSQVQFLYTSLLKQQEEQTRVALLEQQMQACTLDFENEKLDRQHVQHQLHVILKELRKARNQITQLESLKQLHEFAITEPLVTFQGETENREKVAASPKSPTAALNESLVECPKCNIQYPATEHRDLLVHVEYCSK
UniProt Q99832: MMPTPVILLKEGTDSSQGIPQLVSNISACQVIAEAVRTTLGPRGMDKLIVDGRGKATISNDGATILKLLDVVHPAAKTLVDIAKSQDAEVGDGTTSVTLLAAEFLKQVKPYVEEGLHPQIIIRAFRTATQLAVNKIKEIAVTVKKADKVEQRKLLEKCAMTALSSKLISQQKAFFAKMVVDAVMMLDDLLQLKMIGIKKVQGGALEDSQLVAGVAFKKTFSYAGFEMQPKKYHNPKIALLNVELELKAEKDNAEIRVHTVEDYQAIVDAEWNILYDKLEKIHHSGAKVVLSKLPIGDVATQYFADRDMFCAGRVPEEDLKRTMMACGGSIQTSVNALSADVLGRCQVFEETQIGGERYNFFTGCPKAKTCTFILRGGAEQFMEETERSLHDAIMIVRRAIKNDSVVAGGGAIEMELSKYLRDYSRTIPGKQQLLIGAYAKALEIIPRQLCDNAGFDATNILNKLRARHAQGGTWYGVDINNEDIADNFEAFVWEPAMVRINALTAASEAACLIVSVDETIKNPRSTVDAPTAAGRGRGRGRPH
UniProt O60308: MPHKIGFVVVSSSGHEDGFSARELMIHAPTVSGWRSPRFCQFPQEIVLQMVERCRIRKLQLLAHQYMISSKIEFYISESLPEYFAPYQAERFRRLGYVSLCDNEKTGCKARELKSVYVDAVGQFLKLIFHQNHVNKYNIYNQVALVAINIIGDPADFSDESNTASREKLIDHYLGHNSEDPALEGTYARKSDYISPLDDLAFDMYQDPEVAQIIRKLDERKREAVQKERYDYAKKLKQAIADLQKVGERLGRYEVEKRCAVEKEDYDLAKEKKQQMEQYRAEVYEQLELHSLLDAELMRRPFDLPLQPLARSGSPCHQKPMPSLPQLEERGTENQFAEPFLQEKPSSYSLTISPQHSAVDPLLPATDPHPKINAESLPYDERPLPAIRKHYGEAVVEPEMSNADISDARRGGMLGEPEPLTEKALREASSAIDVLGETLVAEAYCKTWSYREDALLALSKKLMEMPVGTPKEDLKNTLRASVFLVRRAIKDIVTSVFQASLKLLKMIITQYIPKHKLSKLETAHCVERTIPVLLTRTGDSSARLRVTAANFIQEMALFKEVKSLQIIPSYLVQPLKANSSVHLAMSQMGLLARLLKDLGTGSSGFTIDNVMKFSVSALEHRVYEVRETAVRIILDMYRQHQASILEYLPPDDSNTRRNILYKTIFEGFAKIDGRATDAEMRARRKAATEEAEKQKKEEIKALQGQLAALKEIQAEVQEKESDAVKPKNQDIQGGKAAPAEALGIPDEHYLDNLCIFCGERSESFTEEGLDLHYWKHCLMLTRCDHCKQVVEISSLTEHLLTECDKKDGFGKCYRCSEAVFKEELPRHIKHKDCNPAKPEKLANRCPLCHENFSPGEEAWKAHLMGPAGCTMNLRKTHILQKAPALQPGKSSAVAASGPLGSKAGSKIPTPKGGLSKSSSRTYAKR
UniProt Q96A19: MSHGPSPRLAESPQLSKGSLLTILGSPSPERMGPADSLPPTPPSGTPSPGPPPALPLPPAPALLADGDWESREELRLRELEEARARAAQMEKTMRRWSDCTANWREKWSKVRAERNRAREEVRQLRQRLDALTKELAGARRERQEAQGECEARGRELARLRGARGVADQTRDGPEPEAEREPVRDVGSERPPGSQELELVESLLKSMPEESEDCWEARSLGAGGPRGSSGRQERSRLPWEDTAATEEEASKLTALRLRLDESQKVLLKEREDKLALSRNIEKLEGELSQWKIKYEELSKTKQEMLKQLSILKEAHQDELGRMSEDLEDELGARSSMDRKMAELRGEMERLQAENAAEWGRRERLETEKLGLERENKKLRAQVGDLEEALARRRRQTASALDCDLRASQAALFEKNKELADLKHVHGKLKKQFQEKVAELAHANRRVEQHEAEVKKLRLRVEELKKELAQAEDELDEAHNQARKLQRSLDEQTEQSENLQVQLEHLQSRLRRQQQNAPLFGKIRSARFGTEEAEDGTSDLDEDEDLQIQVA

[2] = compound: ClCC(=O)N[C@H]1CCCc2ccccc12; assay: as above; conditions: treatment time: 4 h, cell line lysate: HEK293T
Description: as §1

CCDC186 C54 (UniProt Q7Z3E2)
log2 mean competition ratio ([1]; 50 µM): 0.365 | log2 mean competition ratio ([1]; 200 µM): 0.0303 | log2 mean competition ratio ([2]; 50 µM): 0.225 | log2 mean competition ratio ([2]; 200 µM): -0.05

CDK8 C291 (UniProt P49336)
log2 mean competition ratio ([1]; 50 µM): 0.203 | log2 mean competition ratio ([1]; 200 µM): 0.337 | log2 mean competition ratio ([2]; 50 µM): -0.0119 | log2 mean competition ratio ([2]; 200 µM): 0.351

CENPI C332
log2 mean competition ratio ([1]; 50 µM): 0.101 | log2 mean competition ratio ([1]; 200 µM): 0.298 | log2 mean competition ratio ([2]; 50 µM): -0.212 | log2 mean competition ratio ([2]; 200 µM): 0.52

CEP350 C179 (UniProt Q5VT06)
log2 mean competition ratio ([1]; 50 µM): -0.244 | log2 mean competition ratio ([1]; 200 µM): -0.35 | log2 mean competition ratio ([2]; 50 µM): 0.238 | log2 mean competition ratio ([2]; 200 µM): -0.264

CENPE C2643 (UniProt Q02224)
log2 mean competition ratio ([1]; 50 µM): 0.0923 | log2 mean competition ratio ([1]; 200 µM): 0.398 | log2 mean competition ratio ([2]; 50 µM): -0.124 | log2 mean competition ratio ([2]; 200 µM): 0.421

CDK10 C317 (UniProt Q15131)
log2 mean competition ratio ([1]; 50 µM): -0.117 | log2 mean competition ratio ([1]; 200 µM): -0.0741 | log2 mean competition ratio ([2]; 50 µM): -0.025 | log2 mean competition ratio ([2]; 200 µM): 0.0787

CENPM C110 (UniProt Q9NSP4)
log2 mean competition ratio ([1]; 50 µM): 0.508 | log2 mean competition ratio ([1]; 200 µM): -0.534 | log2 mean competition ratio ([2]; 50 µM): -0.0493 | log2 mean competition ratio ([2]; 200 µM): -0.404

CECR2 C1036
log2 mean competition ratio ([1]; 50 µM): -0.067 | log2 mean competition ratio ([1]; 200 µM): 0.308 | log2 mean competition ratio ([2]; 50 µM): 0.0474 | log2 mean competition ratio ([2]; 200 µM): 0.684

CCP110 C535 (UniProt O43303)
log2 mean competition ratio ([1]; 50 µM): 0.256 | log2 mean competition ratio ([1]; 200 µM): 0.21 | log2 mean competition ratio ([2]; 50 µM): -0.0992 | log2 mean competition ratio ([2]; 200 µM): 0.221

CDC5L C96 (UniProt Q99459)
log2 mean competition ratio ([1]; 50 µM): 0.272 | log2 mean competition ratio ([1]; 200 µM): -0.00933 | log2 mean competition ratio ([2]; 50 µM): -0.138 | log2 mean competition ratio ([2]; 200 µM): -0.236

CCDC22 C369 (UniProt O60826)
log2 mean competition ratio ([1]; 50 µM): -0.0252 | log2 mean competition ratio ([1]; 200 µM): 0.389 | log2 mean competition ratio ([2]; 50 µM): 0.131 | log2 mean competition ratio ([2]; 200 µM): 0.265

CEP55 C440 (UniProt Q53EZ4)
log2 mean competition ratio ([1]; 50 µM): -0.281 | log2 mean competition ratio ([1]; 200 µM): 0.637 | log2 mean competition ratio ([2]; 50 µM): -0.3 | log2 mean competition ratio ([2]; 200 µM): 0.162

CERT1 C70
log2 mean competition ratio ([1]; 50 µM): 0.249 | log2 mean competition ratio ([1]; 200 µM): 0.162 | log2 mean competition ratio ([2]; 50 µM): 0.267 | log2 mean competition ratio ([2]; 200 µM): 0.147

CCT7 C310 (UniProt Q99832)
log2 mean competition ratio ([1]; 50 µM): 0.043 | log2 mean competition ratio ([1]; 200 µM): -0.203 | log2 mean competition ratio ([2]; 50 µM): 0.205 | log2 mean competition ratio ([2]; 200 µM): -0.0766

CEP104 C259 (UniProt O60308)
log2 mean competition ratio ([1]; 50 µM): -0.106 | log2 mean competition ratio ([1]; 200 µM): 0.0937 | log2 mean competition ratio ([2]; 50 µM): -0.417 | log2 mean competition ratio ([2]; 200 µM): -0.0439

CCDC102A C214 (UniProt Q96A19)
log2 mean competition ratio ([1]; 50 µM): 0.0623 | log2 mean competition ratio ([1]; 200 µM): -0.12 | log2 mean competition ratio ([2]; 50 µM): 0.126 | log2 mean competition ratio ([2]; 200 µM): 0.274

CEP162 C1014 (UniProt Q5TB80)
log2 mean competition ratio ([1]; 50 µM): -0.21 | log2 mean competition ratio ([1]; 200 µM): 0.145 | log2 mean competition ratio ([2]; 50 µM): -0.0659 | log2 mean competition ratio ([2]; 200 µM): 0.599

— the supplement of paper PMC11732987, “Enantioselective OTUD7B fragment discovery through chemoproteomics screening and high-throughput optimisation” (Communications Chemistry, 2025)
